# Test results taken from article PMC9629626.
# By UniProt entry, the sequences of proteins in these tests, tags left out. Where a name states a change or a piece, a line headed by the entry shows the natural chain unless it says otherwise.
# UniProt A4GSN8: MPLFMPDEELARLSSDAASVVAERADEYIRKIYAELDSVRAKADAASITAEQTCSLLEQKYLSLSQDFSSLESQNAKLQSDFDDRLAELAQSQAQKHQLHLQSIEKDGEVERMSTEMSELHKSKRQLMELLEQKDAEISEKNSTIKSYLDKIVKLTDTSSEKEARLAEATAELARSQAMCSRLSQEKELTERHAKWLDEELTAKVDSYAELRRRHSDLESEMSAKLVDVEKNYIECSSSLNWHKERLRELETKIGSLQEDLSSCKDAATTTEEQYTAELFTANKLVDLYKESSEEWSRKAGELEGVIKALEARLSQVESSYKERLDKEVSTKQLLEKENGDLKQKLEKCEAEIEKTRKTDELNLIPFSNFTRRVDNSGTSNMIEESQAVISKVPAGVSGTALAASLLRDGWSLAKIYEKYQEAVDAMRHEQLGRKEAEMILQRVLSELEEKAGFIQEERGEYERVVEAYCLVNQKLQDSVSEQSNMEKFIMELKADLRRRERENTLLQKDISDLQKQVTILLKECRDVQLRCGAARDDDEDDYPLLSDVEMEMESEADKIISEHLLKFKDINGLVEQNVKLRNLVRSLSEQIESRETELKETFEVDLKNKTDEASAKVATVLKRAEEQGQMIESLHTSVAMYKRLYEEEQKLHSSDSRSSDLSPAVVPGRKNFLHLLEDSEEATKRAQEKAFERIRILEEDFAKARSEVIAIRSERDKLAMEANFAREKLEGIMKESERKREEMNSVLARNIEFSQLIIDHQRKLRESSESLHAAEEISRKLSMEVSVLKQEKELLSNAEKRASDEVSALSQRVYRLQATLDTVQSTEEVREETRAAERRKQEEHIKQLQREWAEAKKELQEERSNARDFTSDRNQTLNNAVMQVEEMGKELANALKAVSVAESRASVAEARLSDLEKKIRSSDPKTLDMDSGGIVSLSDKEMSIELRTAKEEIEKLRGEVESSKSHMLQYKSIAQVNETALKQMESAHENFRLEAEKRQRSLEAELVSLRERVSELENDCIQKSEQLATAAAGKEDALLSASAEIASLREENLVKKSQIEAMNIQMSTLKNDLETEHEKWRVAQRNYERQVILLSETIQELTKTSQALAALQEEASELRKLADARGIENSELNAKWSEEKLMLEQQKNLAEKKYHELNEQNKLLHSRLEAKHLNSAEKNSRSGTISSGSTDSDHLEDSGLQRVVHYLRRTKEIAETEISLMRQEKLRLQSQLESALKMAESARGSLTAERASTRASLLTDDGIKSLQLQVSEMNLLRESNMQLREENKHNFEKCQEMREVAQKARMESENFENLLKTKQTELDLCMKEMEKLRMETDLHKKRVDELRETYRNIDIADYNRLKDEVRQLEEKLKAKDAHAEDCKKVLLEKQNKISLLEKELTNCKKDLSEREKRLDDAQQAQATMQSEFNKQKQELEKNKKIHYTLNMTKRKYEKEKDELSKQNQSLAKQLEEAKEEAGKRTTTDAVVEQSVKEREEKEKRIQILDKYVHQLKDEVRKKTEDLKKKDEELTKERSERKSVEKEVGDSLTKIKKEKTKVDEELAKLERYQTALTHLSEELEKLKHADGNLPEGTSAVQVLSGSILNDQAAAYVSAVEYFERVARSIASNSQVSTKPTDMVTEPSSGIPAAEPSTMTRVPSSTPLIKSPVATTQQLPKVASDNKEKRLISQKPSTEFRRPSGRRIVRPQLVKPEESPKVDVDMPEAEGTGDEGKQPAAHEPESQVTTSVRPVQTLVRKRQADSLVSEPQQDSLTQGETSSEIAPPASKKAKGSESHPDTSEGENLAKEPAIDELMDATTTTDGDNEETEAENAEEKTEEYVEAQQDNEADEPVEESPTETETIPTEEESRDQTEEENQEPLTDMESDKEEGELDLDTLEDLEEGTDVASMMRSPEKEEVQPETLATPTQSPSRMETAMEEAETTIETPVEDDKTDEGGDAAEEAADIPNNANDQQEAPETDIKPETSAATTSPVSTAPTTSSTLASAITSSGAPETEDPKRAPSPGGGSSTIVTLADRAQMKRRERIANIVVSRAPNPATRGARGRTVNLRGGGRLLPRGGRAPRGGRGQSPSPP
# UniProt Q8W117: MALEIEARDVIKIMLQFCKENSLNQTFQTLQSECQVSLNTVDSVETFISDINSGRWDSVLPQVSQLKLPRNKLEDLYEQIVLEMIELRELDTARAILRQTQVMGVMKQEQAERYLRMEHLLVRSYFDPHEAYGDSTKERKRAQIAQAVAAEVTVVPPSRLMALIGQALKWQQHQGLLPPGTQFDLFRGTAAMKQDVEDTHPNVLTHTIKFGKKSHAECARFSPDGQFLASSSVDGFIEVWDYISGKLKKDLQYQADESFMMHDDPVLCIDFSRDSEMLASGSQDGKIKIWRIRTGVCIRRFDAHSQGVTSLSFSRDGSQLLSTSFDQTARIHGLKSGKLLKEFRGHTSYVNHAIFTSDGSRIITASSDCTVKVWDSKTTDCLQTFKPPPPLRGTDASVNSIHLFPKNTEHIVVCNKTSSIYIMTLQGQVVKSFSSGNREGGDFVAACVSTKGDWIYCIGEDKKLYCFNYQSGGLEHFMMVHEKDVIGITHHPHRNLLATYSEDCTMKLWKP
# UniProt Q9M9N3: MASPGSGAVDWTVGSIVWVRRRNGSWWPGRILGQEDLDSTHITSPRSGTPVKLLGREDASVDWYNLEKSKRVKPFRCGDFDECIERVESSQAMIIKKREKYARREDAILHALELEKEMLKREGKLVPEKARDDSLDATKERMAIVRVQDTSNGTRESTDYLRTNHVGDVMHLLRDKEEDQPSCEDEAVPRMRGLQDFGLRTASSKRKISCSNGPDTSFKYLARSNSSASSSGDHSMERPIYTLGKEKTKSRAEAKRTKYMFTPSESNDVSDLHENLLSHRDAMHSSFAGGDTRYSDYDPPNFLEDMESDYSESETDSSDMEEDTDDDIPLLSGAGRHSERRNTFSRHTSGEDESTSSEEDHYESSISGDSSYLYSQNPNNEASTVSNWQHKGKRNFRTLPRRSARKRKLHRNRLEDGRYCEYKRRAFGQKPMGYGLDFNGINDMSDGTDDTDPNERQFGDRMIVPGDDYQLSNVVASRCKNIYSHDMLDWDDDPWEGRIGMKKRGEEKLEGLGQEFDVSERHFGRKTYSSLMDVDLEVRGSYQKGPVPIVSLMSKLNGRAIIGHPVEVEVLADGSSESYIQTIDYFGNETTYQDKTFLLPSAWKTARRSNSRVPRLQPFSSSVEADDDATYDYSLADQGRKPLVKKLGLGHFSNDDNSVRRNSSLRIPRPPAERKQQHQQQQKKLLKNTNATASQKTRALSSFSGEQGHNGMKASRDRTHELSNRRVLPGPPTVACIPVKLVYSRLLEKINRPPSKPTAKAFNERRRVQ
# T1: GBPL3-TurboID-3HA (Arabidopsis) (UniProt F4KG14)
# T1 sequence: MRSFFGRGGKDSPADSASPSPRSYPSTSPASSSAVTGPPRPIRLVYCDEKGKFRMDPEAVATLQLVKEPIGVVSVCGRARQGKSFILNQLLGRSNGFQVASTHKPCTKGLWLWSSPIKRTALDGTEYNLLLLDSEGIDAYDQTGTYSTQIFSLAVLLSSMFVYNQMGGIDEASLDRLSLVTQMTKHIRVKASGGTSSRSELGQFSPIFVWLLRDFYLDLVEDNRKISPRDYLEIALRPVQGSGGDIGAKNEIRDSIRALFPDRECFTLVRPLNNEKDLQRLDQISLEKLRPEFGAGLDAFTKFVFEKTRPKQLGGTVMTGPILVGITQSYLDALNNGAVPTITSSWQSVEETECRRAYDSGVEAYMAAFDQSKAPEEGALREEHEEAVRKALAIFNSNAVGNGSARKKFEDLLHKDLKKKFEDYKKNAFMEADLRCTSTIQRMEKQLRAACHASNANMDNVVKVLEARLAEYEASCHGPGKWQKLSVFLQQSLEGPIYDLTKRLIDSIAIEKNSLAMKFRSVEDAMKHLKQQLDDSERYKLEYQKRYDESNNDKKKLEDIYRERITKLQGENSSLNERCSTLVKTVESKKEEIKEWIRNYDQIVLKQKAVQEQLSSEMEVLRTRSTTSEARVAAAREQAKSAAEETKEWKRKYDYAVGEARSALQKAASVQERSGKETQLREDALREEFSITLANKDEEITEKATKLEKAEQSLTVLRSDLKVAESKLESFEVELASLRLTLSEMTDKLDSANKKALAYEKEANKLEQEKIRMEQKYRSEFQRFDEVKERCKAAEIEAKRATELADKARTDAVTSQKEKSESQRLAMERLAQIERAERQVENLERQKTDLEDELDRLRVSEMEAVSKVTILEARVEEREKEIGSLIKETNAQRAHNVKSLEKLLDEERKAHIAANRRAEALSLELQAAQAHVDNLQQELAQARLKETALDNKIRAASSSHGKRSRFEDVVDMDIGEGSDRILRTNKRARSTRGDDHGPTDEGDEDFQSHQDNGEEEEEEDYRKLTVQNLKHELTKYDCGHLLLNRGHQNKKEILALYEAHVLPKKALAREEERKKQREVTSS
# B1: Nup50b (protein, UniProt Q9LW88 1-465)
# chain: MGDSDNAIPFSRKRTALKELSRDNPGLDDDDEDTSALESGTFNTASKEVLASRRIIRVRRTDRSATAPPASNPFTGIRLVPFTAPAPSTAAAETTKPLSAGKQETLADGRSDATKETDGDSKEKSDAIDAVGKQETQGDEISAKTKDIIDGGEKEMSEAVNSVEGGGAVNKNEDEIKTTMVTEVAAGEETVKDDNNNSNTVEGSDCVVKDTGGNQTEKEGKEGDGNEDTEKNGDSGALSSFHQHSSSKNAFTGLASTGFSASSFSFGLVPQEGSTGSGSEQSSFSFGQANNGNSSLFGASVATSITTKSTETTTAFPSKQDVSVETGEENEKAAFTADSVMFEYLEGGWKERGKGELKVNISTTENRKARLVMRSKGNYRLTLNASLYPEMKLAKMDKKGITFACVNSVSDAKDGLSTLALKFKDPTVVEEFRAVIEEHKDSKPSVAEAAAPLKTPENSPSAEDA
# B2: TBP-ASSOCIATED FACTOR 5 (TAF5) (protein, UniProt Q6S7B0 1-669)
# chain: MDPEQINEFVVGYLKKKGFSSAAKDLESYHHQNNNGSSFTSVDYHNDPELTKLIRSFSQQEDDPTRYREGYSKLRSWAYNSLDLYKHELLRVMYPVFIHCYMDLVGKGHTQEARAFFNSFRKDHEMVHLRDLQKLEGVLSPSHLEEMEFARSLRKSKVNIKFCQYSYELLLQYLHSTVSTLMLGIINEHINFQVYSGQPTSSSDDIEAVTIVGSFQDTANHINQKEIQWGLLEDSLEDRLEKTGGLLSDSEKGQGESKDGDADDSKKRSTEIGKQGSSLKKLKKDKAGNATAKVARLETITVSPAPRVKPELALPVMSTDVEQSILEDLRNRVQLSSVAMPSVSFYTFVNTHNGLNCSSISHDGSLVAGGFSDSSIKVWDMAKIGQAGSGALQAENDSSDQSIGPNGRRSYTLLLGHSGPVYSATFSPPGDFVLSSSADTTIRLWSTKLNANLVCYKGHNYPVWDAQFSPFGHYFASCSHDRTARIWSMDRIQPLRIMAGHLSDVDCVQWHPNCNYIATGSSDKTVRLWDVQTGECVRIFIGHRSMVLSLAMSPDGRYMASGDEDGTIMMWDLSTARCITPLMGHNSCVWSLSYSGEGSLLASGSADCTVKLWDVTSSTKLTKAEEKNGNSNRLRSLRTFPTKSTPVHALRFSRRNLLFAAGAISKPAN
# B3: ANTHESIS PROMOTING FACTOR 1 (APRF1) (protein, UniProt Q9LYK6 1-330)
# chain: MSLTELDDGLVRRMAMGAVFSDFGGKIHSVGFHRTDDLLVTSSEDDSLRLFDIANAKQLKITYHKKHGTDRVCFTHHPSSLICSSRYNLESTGESLRYLSMYDNRILRYFKGHKDRVVSLCMSPINDSFMSGSLDRSVRLWDLRVNACQGILHLRGRPAVAYDQQGLVFAIAMEGGAVKLFDSRCYDKGPFDTFLVGGDTAEVNDIKFSNDGKSMLLTTTNNNIYVLDAYRGEKKCGFSLEPSQGTPIEATFTPDGKYVLSGSGDGTLHAWNIENPSEVARWENNIGVVSCLKWAPRRAMFVAASTVLTFWIPNDGESPAPADPPTDQQQ
# B4: ACTIN-RELATED PROTEIN 4 (ARP4) (protein, UniProt Q84M92 1-441)
# chain: MYGGDEVSAIVVDLGSHTCKAGYAGEDAPKAVFPSVIGAVDGVEAMDVDVDSTKTNSNSEDSKTESEKEKSKRKLYVGSQAMSYRRDHMEVLSPIKDGIVSDWDLVDNIWEHAFKSCLMIDPTEHPMLLAEPPLNTQQQREKAAELMFEKYKVPALFMAKNPVLTSFATGRATSLVVDCGGGSTTISPVHDGYVLQKAVVSSPLGGEFLTDCLLKSLESKGIKIRPRYSFKRKEVRAGEFQVEDVDIPDTTESYKLFCQRMIVGDIKDSICRVPDTPYDDKSYSNIPTTSYELPDGQTLEIGADRFKVPDVMFNPSIVQTIPGMEKYAEMIPSVRGLPHMVMESINKCDVDIRRELYSSILLAGGTSSMQQLKERLEKDLIEESPHSARVKVLASGNTTERRFSVWIGGSILASLGSFQQMWFSKSEYEEHGASYIQRKCP
# Molecular target: T1, GBPL3-TurboID-3HA (Arabidopsis)
# Assay: proximity labelling; GBPL3-TurboID-3HA (native promoter) as bait in 1-week-old Arabidopsis seedlings, 50 uM biotin 4 h at room temperature; biotinylated proteins on streptavidin beads; label-free quantitative mass spectrometry; cutoffs fold-change > 4, p < 0.01 against wild-type non-transformants; 2 biological replicates
row,binding,Molecule
1,binds,NUA (from UniProt A4GSN8 1-2093)
2,binds,Nup50c
3,binds,SUPPRESSORS OF MEC-8 AND UNC-52 1 (SMU1) (from UniProt Q8W117 1-511)
4,binds,ABA-RESPONSIVE KINASE SUBSTRATE 2 (AKS2)
5,binds,PWWP DOMAIN INTERACTOR OF POLYCOMBS1 (PWO1) (from UniProt Q9M9N3)
6,binds,Nup82
7,binds,B1
8,binds,B2
9,binds,B3
10,binds,B4

# Results are given in words; binding and its absence hold for the method and conditions named. In cells and extracts the contact can be indirect. These calls come from enrichment with a bait or labelling near it, and not all partners need be listed.
